Reference: paper PMC11700592, “Noncoding RNA Terc-53 and hyaluronan receptor Hmmr regulate aging in mice” (Protein & Cell, 2024)
Results are given in words; binding and its absence hold for the method and conditions named. In cells and extracts the contact can be indirect. Some results given as binding are weak or reduced against the parent protein; the word gives no strength.

Chains of the proteins cited; added tags and fusions are not shown.
UniProt Q61510: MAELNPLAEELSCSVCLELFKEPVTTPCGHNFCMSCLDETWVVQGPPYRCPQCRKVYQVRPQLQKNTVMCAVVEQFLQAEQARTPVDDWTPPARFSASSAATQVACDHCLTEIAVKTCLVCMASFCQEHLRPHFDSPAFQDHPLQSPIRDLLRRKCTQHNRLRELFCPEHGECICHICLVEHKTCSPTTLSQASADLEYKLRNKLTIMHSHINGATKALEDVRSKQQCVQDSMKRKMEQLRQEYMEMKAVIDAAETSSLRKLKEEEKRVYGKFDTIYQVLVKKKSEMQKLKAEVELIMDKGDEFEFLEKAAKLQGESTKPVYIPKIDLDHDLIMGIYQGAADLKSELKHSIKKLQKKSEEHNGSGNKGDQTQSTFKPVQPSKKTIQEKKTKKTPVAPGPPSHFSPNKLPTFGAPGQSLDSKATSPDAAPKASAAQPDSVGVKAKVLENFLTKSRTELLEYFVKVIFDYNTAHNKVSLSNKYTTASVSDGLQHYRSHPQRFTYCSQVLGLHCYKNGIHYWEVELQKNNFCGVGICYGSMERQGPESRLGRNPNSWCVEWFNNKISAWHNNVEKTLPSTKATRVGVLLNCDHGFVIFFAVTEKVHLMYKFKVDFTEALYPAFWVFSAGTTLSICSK

Biological target: T1, hyaluronan-mediated motility receptor (Hmmr), endogenous (mouse (endogenous in N2a)) (UniProt Q00547)
T1 sequence: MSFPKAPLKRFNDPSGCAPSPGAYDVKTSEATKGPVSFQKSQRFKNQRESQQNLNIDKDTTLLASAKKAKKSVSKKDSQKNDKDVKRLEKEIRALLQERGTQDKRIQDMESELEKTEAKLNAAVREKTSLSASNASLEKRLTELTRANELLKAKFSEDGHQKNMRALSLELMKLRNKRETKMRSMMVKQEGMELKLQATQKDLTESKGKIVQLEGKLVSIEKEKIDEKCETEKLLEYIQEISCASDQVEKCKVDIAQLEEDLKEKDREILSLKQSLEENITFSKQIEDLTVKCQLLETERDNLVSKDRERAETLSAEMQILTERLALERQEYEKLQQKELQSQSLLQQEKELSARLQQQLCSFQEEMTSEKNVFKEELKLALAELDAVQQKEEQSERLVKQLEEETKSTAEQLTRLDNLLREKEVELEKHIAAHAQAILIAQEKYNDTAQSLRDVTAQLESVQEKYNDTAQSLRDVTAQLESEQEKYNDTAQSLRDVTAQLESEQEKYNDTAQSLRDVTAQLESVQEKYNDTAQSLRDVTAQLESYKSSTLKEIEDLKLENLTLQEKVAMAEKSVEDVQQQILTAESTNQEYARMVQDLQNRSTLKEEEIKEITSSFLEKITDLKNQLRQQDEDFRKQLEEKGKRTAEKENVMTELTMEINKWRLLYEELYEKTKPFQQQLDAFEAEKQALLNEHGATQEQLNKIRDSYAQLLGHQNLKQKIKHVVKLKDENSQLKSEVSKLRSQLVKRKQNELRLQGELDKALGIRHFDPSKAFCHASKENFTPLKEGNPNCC
Experiment: co-IP; endogenous proteins; Hmmr antibody on Protein G/A Sepharose beads, blot with Trim25 antibody; IP lysis buffer 50 mmol/L Tris-HCl pH 7.4, 10 mmol/L KCl, 1.5 mmol/L MgCl2, 1% NP-40 with RNase inhibitors; 4°C overnight

Trim25, endogenous (from UniProt Q61510 1-634)
binding: binds
